Data: PubChem BioAssay
Several values for one entry are separate records, joined by “and”; a condition that tells them apart may be missing. Identical values can stand only once. This is one part of the list. These are further read-outs of the screen, such as a control signal, another cell line or another target. No call is given for them. For some assays here: Most of these compounds were active or inconclusive in the main read-out, so they are no random draw. Bridge positions count the residues as written; N and C are the ends. Square brackets hold non-standard residues; d marks the D form. Peptide text beside a SMILES is read from it. * marks the point of attachment. Octanoyl(6-Me) = CCC(C)CCCCC(=O)*; Dab = NCC[CH](N)C(=O)O; For = O=C*

Columns and labels:
[1] = PubChem AID 1586; conditions: yeast two-hybrid polyglutamine protein interaction, reporter readout; measured here: averaged growth delta OD
[2] = selective SMN2 exon splicing luciferase activators – cell-based, SMN2/SMN1 luciferase reporters (AID 1598); conditions: SMN2 vs SMN1 luciferase splicing reporter cells, at 10 µM; SMN1 luciferase ratio: measured here: SMN1 luciferase reporter average; SMN2 luciferase ratio: measured here: SMN2 luciferase reporter average, stronger effect = higher value
[3] = rescue of PC12 cells from polyQ htt toxicity – LDH release (AID 1610); conditions: PC12 mutant huntingtin toxicity, final LDH at 4 uM, stronger effect = lower value

SMILES	signal change (36 h minus 0 h) [1]	SMN1 luciferase ratio [2]	SMN2 luciferase ratio [2]	normalised LDH release [3]
CC1(C)O[C@@H]2CC3C4CCC5=CC(=O)C=C[C@]5(C)[C@@]4(F)[C@@H](O)C[C@]3(C)[C@]2(C(=O)CO)O1 (stereo partly specified)	0.203	1.01	1.01	0.785
CC1=CC(=O)c2ccccc2C1=O	0.114	1.08	1.13	0.418
CCN(CC)CCOC(=O)C(Cc1cccc2ccccc12)CC1CCCO1 (stereo unspecified)	0.2	0.82	0.96	0.61
CCOc1ccc(NC(C)=O)cc1	0.159	0.98	1.02	1.35
CC(C)NCC(O)c1cc(O)cc(O)c1 (stereo unspecified)	0.154	0.91	0.94	0.936
N=c1nc(N2CCCCC2)cc(N)n1O	0.0471	0.9	0.93	0.817
CCOC(=O)[C@H](CCc1ccccc1)N[C@@H](C)C(=O)N1Cc2ccccc2C[C@H]1C(=O)O	0.109	0.95	0.95	0.789
Nc1ccc(S(=O)(=O)Nc2cnc3ccccc3n2)cc1	0.053	0.86	0.84	0.872
CCC(C)CCCCC(=O)NC(CCN)C(=O)NC(C(=O)NC(CCN)C(=O)NC1CCNC(=O)C(C(C)O)NC(=O)C(CCN)NC(=O)C(CCN)NC(=O)C(CC(C)C)NC(=O)C(Cc2ccccc2)NC(=O)C(CCN)NC1=O)C(C)O (stereo unspecified) ({Octanoyl(6-Me)}-[Dab]T[Dab][Dab][Dab]FL[Dab][Dab]T; lactam 4-C; configuration not given here)	-0.137	0.85	0.9	0.915
COc1cc(S(C)=O)ccc1-c1nc2ncccc2[nH]1 (stereo unspecified)	0.0932	0.96	0.85	1.01
CC(C)CC1NC(=O)CNC1=O (stereo unspecified)	0.146	0.94	0.99	0.955
Cc1ccnc(NS(=O)(=O)c2ccc(N)cc2)n1	0.191	0.9	0.87	1.03
NCCc1ccc(O)c(O)c1	0.0757	0.99	1.07	1.14
CN(Cc1cnc2nc(N)nc(N)c2n1)c1ccc(C(=O)N[C@@H](CCC(=O)O)C(=O)O)cc1	0.04	0.27	0.34	1.08
CC(CCc1ccccc1)NCC(O)c1ccc(O)c(C(N)=O)c1 (stereo unspecified)	0.0903	0.88	0.75	0.861
CN(C)CC/C=C1\c2ccccc2Sc2ccc(Cl)cc21	0.102	0.83	1	0.879
NC(Cc1cc(I)c(Oc2ccc(O)c(I)c2)c(I)c1)C(=O)O (stereo unspecified)	0.0592	0.81	0.85	1.09
CN1CCC[C@H]1c1cccnc1	0.0568	1	1.06	0.94
CN/C(=C\[N+](=O)[O-])NCCSCc1ccc(CN(C)C)o1	0.0648	0.94	0.81	0.742
CC(=O)C1CCC2C3CC=C4CC(OS(=O)(=O)O)CC[C@]4(C)C3CC[C@]12C (stereo partly specified)	0.0867	0.95	0.96	0.693
NCC1OC(OC2C(N)CC(N)C(OC3OC(CO)C(O)C(N)C3O)C2O)C(N)C(O)C1O (stereo unspecified)	0.253	0.91	0.94	1.12
CN1CCN(CCC=C2c3ccccc3Sc3ccc(S(=O)(=O)N(C)C)cc32)CC1	0.102	1	0.96	0.403
CC1CCc2cc(F)cc3c(=O)c(C(=O)O)cn1c23 (stereo unspecified)	0.201	0.84	0.95	0.851
Cc1nc2sccn2c(=O)c1CCN1CCC(=C(c2ccc(F)cc2)c2ccc(F)cc2)CC1	0.0619	0.85	0.86	1.01
O=C(C1CCCCC1)N1CC(=O)N2CCc3ccccc3C2C1 (stereo unspecified)	0.231	0.86	0.89	0.97

SMILES	signal change (36 h minus 0 h) [1]	SMN1 luciferase ratio [2]	SMN2 luciferase ratio [2]	normalised LDH release [3]
O=C1OCCN1/N=C/c1ccc([N+](=O)[O-])o1	0.194	0.9	0.9	0.958
C[N+](C)(C)CC(O)CC(=O)O (stereo unspecified)	0.105	0.94	0.76	0.985
C/C=C(/C(=C/C)c1ccc(O)cc1)c1ccc(O)cc1	0.0503	0.92	0.96	0.858
CCCCOC(=O)c1ccc(N)cc1	0.049	1.02	1.01	0.8
O=C1O[C@@H](CO)[C@H](O)[C@@H](O)[C@@H]1O	0.00085	0.93	0.86	0.644
CC1CC2C3CCC4=CC(=O)C=CC4(C)[C@@]3(F)C(O)CC2(C)[C@@]1(O)C(=O)CO (stereo partly specified)	0.196	0.91	0.96	0.381
NC(=O)c1cccc(N)c1	0.16	0.87	0.88	1.04
CCN(CC)CCOC(=O)C(c1ccccc1)C1CCCCC1 (stereo unspecified)	0.231	0.96	0.91	1.14
CC(C(=O)O)c1ccc(-c2ccccc2)c(F)c1 (stereo unspecified)	0.169	0.96	0.99	1.02
CC(=O)Nc1ccc(OC(=O)c2ccccc2O)cc1	0.149	0.86	1.01	0.444
COC(=O)[C@H](c1ccccc1Cl)N1CCc2sccc2C1	0.276	0.89	0.89	0.564
CC12CCC3C(=CCc4cc(O)ccc43)C1CCC2=O (stereo unspecified)	0.0898	0.92	0.98	0.896
Cc1onc(-c2c(Cl)cccc2Cl)c1C(=O)N[C@@H]1C(=O)N2[C@@H]1SC(C)(C)[C@@H]2C(=O)O	0.041	0.89	0.91	1.02
Clc1ccccc1C(c1ccccc1)(c1ccccc1)n1ccnc1	0.186	0.89	0.86	1.25
CN(C)CCOC(=O)C(c1ccccc1)C1(O)CCCC1 (stereo unspecified)	0.209	0.86	0.93	0.732
CC[C@@H](CO)NCCN[C@@H](CC)CO	0.154	0.91	0.92	1
NC(N)=NCCN1CCCCCCC1	0.112	0.88	1.1	0.695
CCOc1ccccc1OCC1CNCCO1 (stereo unspecified)	0.3	0.88	0.92	0.961
CCN(CC)CCOc1ccc(/C(=C(\Cl)c2ccccc2)c2ccccc2)cc1	0.0834	0.9	0.87	0.938
NC[C@@H]1O[C@H](O[C@@H]2[C@@H](CO)OC(O[C@@H]3[C@@H](O)[C@H](N)C[C@H](N)[C@H]3OC3O[C@H](CN)[C@@H](O)[C@H](O)[C@H]3N)[C@@H]2O)[C@H](N)[C@@H](O)[C@@H]1O (stereo partly specified)	0.0664	0.9	0.87	1.12
Cc1oncc1C(=O)Nc1ccc(C(F)(F)F)cc1	0.0303	1.82	1.75	1.47
O=c1[nH]cnc2[nH]ncc12	0.0917	0.88	0.96	0.8
Nc1ncnc2c1ncn2C1OC(CO)[C@H](O)C1O (stereo partly specified)	0.178	0.93	0.98	0.867
CC(C)(Oc1ccc(CCNC(=O)c2ccc(Cl)cc2)cc1)C(=O)O	0.153	0.88	0.89	0.984
Nc1nc(N)c2nc(-c3ccccc3)c(N)nc2n1	0.135	0.83	0.79	0.829

SMILES	signal change (36 h minus 0 h) [1]	SMN1 luciferase ratio [2]	SMN2 luciferase ratio [2]	normalised LDH release [3]
CC(C)CC(NC(=O)CCN)C(=O)O (stereo unspecified)	0.0514	0.99	0.96	1
COc1cccc(C(=O)c2ccccc2O)c1O	0.0927	0.95	0.98	0.534
O=C(O)C1=CCNCC1	0.045	0.84	0.87	0.949
C[C@H](CCC(=O)O)[C@H]1CCC2C3C(CC[C@@]21C)[C@@]1(C)CC[C@@H](O)C[C@H]1C[C@@H]3O (stereo partly specified)	0.195	0.92	1.05	0.625
CC(=O)N[C@@H]1[C@@H](C(O)[C@H](O)CO)O[C@](O)(C(=O)O)C[C@@H]1O (stereo partly specified)	0.222	1.04	1.19	1.37
Nc1nc2c(ncn2COCCO)c(=O)[nH]1	0.141	0.9	0.95	1.07
CCCNCC(O)COc1ccccc1C(=O)CCc1ccccc1 (stereo unspecified)	0.15	0.92	0.9	1.27
COCCc1ccc(OCC(O)CNC(C)C)cc1 (stereo unspecified)	0.126	0.91	0.88	1.16
Cc1c(OCC(F)(F)F)ccnc1CS(=O)c1nc2ccccc2[nH]1 (stereo unspecified)	0.0895	1.5	1.13	1.18
CCn1cc(C(=O)O)c(=O)c2cc(F)c(N3CCNCC3)cc21	0.116	0.87	0.76	1.09
O=C1NCC2(CCN(CCc3ccccc3)CC2)O1	0.152	0.89	0.84	0.859
CSCCC(NC=O)C(=O)NC(Cc1ccccc1)C(=O)O (stereo not drawn) (For-Met-Phe-OH; configuration not given here)	0.221	0.92	1	1.4
O=C1CC2(CCCC2)CC(=O)N1CCCCN1CCN(c2ncccn2)CC1	0.0678	0.96	0.88	0.881
CCCCCCc1ccc(O)cc1O	0.113	0.9	0.97	0.891
O=C1C[C@@H](c2ccc(O)cc2)Oc2cc(O)cc(O)c21	0.0469	1.01	1	1
CCC[C@@H]1C[C@@H](C(=O)N[C@H]([C@H]2O[C@H](SC)[C@H](O)[C@@H](O)[C@H]2O)[C@H](C)O)N(C)C1	0.101	0.93	0.92	1.46
O=C(CCCN1CC=C(n2c(=O)[nH]c3ccccc32)CC1)c1ccc(F)cc1	0.109	0.83	0.88	0.893
CCOC(=O)C(C)(C)Oc1ccc(Cl)cc1	0.43 and 0.167	1.01 and 0.91	1.03 and 0.94	0.849 and 0.902
Cc1ccc(N(CC2=NCCN2)c2cccc(O)c2)cc1	0.0961	0.93	0.89	0.948
COc1ccc(C2C(=O)c3ccccc3C2=O)cc1	0.164	1.68	1.94	0.691
CC(=O)N[C@@H](CC(=O)O)C(=O)N[C@@H](CCC(=O)O)C(=O)O (Ac-Asp-Glu-OH)	0.0039	0.94	0.88	1.07
C[C@]12CCC3c4ccc(O)cc4CCC3C1CC[C@@H]2O (stereo partly specified)	0.0328	0.89	0.83	0.436
CS(=O)(=O)OCCCCOS(C)(=O)=O	0.11	0.85	0.81	0.628
CCOC(=O)OC(C)OC(=O)C1N2C(=O)C(NC(=O)[C@H](N)c3ccccc3)C2SC1(C)C (stereo partly specified)	0.141	0.84	0.9	0.375
